Experimental data taken from paper PMC6851102.
No constants are given. Whether binding was seen depends on the method and setting. Binding seen in cells or lysates may run through a third protein. Some binding calls cover weakened binding; strength is not graded here. For some assays here: Where a sequence is shown, tags or fusion partners need not be part of it.

Protein sequences, listed by entry. Tags and fused reporters are not part of them.
UniProt Q13330: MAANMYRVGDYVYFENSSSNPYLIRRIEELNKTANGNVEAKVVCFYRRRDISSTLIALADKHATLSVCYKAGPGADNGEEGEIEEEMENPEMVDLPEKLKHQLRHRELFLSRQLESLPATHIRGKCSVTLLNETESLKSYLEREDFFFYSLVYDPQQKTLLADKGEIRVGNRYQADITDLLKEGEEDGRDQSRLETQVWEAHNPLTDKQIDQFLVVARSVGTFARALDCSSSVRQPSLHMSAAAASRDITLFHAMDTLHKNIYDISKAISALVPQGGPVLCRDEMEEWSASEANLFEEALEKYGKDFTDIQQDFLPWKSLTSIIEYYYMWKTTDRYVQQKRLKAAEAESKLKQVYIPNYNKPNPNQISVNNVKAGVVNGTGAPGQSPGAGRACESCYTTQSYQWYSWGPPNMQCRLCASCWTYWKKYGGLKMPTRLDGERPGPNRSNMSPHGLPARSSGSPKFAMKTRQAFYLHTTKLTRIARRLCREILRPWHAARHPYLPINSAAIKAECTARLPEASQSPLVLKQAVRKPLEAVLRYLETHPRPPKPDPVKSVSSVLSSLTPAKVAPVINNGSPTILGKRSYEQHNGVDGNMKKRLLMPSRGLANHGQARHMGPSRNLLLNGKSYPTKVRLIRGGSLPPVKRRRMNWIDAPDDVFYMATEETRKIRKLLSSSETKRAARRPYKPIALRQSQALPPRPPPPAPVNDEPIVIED
UniProt Q9R190: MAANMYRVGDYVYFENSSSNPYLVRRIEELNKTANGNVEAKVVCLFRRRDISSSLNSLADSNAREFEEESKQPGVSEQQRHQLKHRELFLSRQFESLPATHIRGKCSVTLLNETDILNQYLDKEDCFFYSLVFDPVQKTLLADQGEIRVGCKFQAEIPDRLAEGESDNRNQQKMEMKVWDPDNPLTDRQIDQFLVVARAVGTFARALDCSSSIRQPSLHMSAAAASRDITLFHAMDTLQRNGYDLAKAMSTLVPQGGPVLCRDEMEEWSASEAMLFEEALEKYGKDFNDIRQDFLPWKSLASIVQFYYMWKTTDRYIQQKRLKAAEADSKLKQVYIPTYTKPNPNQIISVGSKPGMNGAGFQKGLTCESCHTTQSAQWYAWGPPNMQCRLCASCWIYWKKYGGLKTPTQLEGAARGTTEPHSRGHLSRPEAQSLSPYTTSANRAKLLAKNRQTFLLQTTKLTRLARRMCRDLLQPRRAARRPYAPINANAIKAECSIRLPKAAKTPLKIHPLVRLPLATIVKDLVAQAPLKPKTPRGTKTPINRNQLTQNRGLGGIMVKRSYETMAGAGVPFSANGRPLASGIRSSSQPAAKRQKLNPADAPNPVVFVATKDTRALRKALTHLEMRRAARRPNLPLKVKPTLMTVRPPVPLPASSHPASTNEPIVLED
UniProt Q924K8: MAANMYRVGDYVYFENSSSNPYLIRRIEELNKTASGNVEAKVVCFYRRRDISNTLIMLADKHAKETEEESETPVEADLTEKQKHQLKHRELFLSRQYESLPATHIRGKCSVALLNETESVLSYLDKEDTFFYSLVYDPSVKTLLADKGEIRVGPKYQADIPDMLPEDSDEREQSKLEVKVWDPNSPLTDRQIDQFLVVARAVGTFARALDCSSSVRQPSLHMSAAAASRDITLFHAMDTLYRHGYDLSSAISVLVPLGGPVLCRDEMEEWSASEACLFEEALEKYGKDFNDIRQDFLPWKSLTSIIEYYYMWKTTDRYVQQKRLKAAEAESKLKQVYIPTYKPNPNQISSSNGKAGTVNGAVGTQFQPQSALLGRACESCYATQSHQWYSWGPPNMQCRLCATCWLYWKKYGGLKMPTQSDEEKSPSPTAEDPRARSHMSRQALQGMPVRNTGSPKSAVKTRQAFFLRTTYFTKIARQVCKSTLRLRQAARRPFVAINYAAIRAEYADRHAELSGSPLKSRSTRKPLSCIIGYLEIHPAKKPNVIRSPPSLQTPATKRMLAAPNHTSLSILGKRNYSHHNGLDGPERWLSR

T1: ZEB1, endogenous in murine NSCLC cell lines (mouse (endogenous in 344SQ and 531LN2)) (UniProt Q64318)
T1 sequence: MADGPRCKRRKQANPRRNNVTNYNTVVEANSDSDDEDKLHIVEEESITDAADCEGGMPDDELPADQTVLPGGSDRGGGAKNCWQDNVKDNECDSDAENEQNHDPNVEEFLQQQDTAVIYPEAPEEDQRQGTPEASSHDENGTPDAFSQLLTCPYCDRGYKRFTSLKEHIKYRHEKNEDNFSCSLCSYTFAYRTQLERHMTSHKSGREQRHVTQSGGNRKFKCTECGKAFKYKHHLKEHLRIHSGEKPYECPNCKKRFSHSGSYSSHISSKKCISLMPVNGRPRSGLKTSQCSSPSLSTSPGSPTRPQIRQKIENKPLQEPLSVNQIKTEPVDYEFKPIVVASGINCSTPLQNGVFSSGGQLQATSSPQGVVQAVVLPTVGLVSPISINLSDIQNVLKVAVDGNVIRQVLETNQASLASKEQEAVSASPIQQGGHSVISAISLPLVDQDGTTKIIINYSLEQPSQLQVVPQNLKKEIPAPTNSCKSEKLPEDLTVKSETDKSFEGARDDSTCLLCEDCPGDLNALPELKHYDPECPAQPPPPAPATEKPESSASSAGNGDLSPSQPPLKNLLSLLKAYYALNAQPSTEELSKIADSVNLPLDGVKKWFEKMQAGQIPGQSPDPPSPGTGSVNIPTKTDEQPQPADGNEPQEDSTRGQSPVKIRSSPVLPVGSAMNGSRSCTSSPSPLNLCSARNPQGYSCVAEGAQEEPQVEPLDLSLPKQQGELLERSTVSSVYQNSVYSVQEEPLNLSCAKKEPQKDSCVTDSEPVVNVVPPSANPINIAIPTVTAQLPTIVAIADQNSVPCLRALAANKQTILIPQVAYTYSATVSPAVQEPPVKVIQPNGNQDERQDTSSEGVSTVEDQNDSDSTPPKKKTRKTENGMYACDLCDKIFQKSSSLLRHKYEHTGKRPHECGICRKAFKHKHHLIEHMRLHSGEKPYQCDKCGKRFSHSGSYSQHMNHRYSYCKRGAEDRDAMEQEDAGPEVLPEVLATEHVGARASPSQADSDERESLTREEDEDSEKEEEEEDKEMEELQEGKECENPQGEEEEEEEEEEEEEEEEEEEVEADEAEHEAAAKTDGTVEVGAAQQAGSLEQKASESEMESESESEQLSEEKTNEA

T2: TBC1D2b in the murine NSCLC cell lines 344SQ and 531LN2 (murine) (UniProt Q3U0J8)
T2 sequence: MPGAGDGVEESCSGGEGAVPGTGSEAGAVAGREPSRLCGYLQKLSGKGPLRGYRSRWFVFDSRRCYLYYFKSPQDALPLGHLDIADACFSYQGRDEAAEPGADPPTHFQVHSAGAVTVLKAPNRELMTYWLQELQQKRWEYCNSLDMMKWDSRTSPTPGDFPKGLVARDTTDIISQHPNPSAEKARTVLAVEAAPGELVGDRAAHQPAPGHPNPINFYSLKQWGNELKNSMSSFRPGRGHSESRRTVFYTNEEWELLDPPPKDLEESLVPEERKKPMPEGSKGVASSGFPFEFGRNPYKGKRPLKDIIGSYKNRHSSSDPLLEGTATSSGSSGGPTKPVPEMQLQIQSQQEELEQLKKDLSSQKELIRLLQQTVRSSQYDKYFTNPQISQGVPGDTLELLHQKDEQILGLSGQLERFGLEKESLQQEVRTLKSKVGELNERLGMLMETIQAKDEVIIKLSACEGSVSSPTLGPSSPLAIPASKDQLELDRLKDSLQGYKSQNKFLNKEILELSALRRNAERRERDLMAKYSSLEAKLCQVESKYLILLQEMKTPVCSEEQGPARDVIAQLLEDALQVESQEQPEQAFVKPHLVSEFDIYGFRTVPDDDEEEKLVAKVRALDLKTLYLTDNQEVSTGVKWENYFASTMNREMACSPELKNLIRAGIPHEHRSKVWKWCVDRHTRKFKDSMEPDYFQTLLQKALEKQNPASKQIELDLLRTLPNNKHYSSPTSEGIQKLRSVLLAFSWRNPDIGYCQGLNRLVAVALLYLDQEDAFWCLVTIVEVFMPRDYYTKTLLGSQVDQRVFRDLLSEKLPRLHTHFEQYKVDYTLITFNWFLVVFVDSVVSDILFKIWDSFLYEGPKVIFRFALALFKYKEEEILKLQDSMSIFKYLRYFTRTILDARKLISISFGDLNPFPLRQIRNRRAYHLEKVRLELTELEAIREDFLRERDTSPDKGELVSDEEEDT


How the values were obtained:
[1] = target: T1, ZEB1, endogenous in murine NSCLC cell lines (mouse (endogenous in 344SQ and 531LN2)); assay: proximity ligation; endogenous proteins in fixed, permeabilised H157, H1299, 344SQ and 531LN2 cells; primary antibodies to ZEB1 and a NuRD member; Duolink In Situ Red Starter Mouse/Rabbit kit; confocal microscopy
[2] = target: T2, TBC1D2b in the murine NSCLC cell lines 344SQ and 531LN2 (murine); assay: co-IP; 344SQ and 531LN2 murine cell lysates; 500 ug crude lysate with primary antibody overnight at 4 °C, Protein A/G PLUS-Agarose; Western blot
[3] = target: MTA1, human, endogenous (human (endogenous in HEK293 Flp-In, H157 and H1299)) (UniProt Q13330); assay: co-IP; HEK293 Flp-In cells expressing FlagBirA*-ZEB1; 500 ug crude lysate with primary antibody overnight at 4 °C, Protein A/G PLUS-Agarose, washes with PBS and 50 mM Tris pH 7.4, 150 mM NaCl, 0.1% NP-40; Western blot

Row | binding [1] | binding [2] | Molecule | other results
1 | – | no binding | Rab31, murine, endogenous (protein, UniProt Q921E2 1-195) MMAIRELKVCLLGDTGVGKSSIVCRFVQDHFDHNISPTIGASFMTKTVPCGNELHKFLIWDTAGQERFHSLAPMYYRGSAAAVIVYDITKQDSFHTLKKWVKELKEHGPENIVMAIAGNKCDLSDIREVPLKDAKEYAESIGAIVVETSAKNAINIEELFQGISRQIPPLGPQENGNSGGIKLGNQSLQASRRCC | –
2 | – | binds | Rab22, murine, endogenous (protein, UniProt P35285 1-194) MALRELKVCLLGDTGVGKSSIVWRFVEDSFDPNINPTIGASFMTKTVQYQNELHKFLIWDTAGQERFRALAPMYYRGSAAAIIVYDITKEETFSTLKNWVRELRQHGPPSIVVAIAGNKCDLTDVREVMERDAKDYADSIHAIFVETSAKNAININELFIEISRRIPSTDANPASGGKGFKLRRQPSEPKRSCC | –

The next lines start with the molecule.

Row | Molecule | binding [1] | binding [2] | other results
3 | MTA2, murine, endogenous (from UniProt Q9R190 1-668) | binds | – | –
4 | MTA3, murine, endogenous (from UniProt Q924K8 1-591) | binds | – | –
5 | FlagBirA*-ZEB1 (human ZEB1 with an N-terminal FlagBirA* tag) (protein, UniProt P37275 1-1124) MADGPRCKRRKQANPRRNNVTNYNTVVETNSDSDDEDKLHIVEEESVTDAADCEGVPEDDLPTDQTVLPGRSSEREGNAKNCWEDDRKEGQEILGPEAQADEAGCTVKDDECESDAENEQNHDPNVEEFLQQQDTAVIFPEAPEEDQRQGTPEASGHDENGTPDAFSQLLTCPYCDRGYKRFTSLKEHIKYRHEKNEDNFSCSLCSYTFAYRTQLERHMTSHKSGRDQRHVTQSGCNRKFKCTECGKAFKYKHHLKEHLRIHSGEKPYECPNCKKRFSHSGSYSSHISSKKCISLIPVNGRPRTGLKTSQCSSPSLSASPGSPTRPQIRQKIENKPLQEQLSVNQIKTEPVDYEFKPIVVASGINCSTPLQNGVFTGGGPLQATSSPQGMVQAVVLPTVGLVSPISINLSDIQNVLKVAVDGNVIRQVLENNQANLASKEQETINASPIQQGGHSVISAISLPLVDQDGTTKIIINYSLEQPSQLQVVPQNLKKENPVATNSCKSEKLPEDLTVKSEKDKSFEGGVNDSTCLLCDDCPGDINALPELKHYDLKQPTQPPPLPAAEAEKPESSVSSATGDGNLSPSQPPLKNLLSLLKAYYALNAQPSAEELSKIADSVNLPLDVVKKWFEKMQAGQISVQSSEPSSPEPGKVNIPAKNNDQPQSANANEPQDSTVNLQSPLKMTNSPVLPVGSTTNGSRSSTPSPSPLNLSSSRNTQGYLYTAEGAQEEPQVEPLDLSLPKQQGELLERSTITSVYQNSVYSVQEEPLNLSCAKKEPQKDSCVTDSEPVVNVIPPSANPINIAIPTVTAQLPTIVAIADQNSVPCLRALAANKQTILIPQVAYTYSTTVSPAVQEPPLKVIQPNGNQDERQDTSSEGVSNVEDQNDSDSTPPKKKMRKTENGMYACDLCDKIFQKSSSLLRHKYEHTGKRPHECGICKKAFKHKHHLIEHMRLHSGEKPYQCDKCGKRFSHSGSYSQHMNHRYSYCKREAEERDSTEQEEAGPEILSNEHVGARASPSQGDSDERESLTREEDEDSEKEEEEEDKEMEELQEEKECEKPQGDEEEEEEEEEVEEEEVEEAENEGEEAKTEGLMKDDRAESQASSLGQKVGESSEQVSEEKTNEA | – | – | binding [3]: binds
